Measurements from publication doi:10.1101/151191.
No constants are given. Whether binding was seen depends on the method and setting.

The chains behind the UniProt entries cited, without tags or fusion partners. Residues count along the entry.
UniProt Q0QWG9, 805-1203: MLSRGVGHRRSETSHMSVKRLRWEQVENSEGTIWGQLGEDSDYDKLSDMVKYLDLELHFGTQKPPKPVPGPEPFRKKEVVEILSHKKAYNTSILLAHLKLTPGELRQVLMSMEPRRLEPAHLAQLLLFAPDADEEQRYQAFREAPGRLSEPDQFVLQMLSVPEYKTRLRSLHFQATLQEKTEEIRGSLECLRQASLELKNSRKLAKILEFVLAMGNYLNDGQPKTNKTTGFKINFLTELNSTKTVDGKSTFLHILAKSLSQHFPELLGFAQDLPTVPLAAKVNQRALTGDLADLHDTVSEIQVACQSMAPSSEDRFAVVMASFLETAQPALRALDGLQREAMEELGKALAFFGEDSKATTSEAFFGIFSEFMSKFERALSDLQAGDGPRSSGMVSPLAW

Molecular target: mDelFC (mouse Delphilin FH2 domain through to the C-terminus) (mouse) (UniProt Q0QWG9)
Assay: SEC

binding: no binding
Substance: α-mDelNT (N-terminal half of mouse α-Delphilin) (from UniProt Q0QWG9-2 1-558) (domain or fragment)
